Experimental data taken from paper PMC11106307.
These are yes or no findings as the source states them, for the method shown. In cells and extracts the contact can be indirect. Here binding means that the protein was enriched with, or labelled near, the bait; the list need not be complete.

Sequences of proteins named here, by UniProt entry; tags and fusion partners are left off. Residues count along the entry.
UniProt Q16665: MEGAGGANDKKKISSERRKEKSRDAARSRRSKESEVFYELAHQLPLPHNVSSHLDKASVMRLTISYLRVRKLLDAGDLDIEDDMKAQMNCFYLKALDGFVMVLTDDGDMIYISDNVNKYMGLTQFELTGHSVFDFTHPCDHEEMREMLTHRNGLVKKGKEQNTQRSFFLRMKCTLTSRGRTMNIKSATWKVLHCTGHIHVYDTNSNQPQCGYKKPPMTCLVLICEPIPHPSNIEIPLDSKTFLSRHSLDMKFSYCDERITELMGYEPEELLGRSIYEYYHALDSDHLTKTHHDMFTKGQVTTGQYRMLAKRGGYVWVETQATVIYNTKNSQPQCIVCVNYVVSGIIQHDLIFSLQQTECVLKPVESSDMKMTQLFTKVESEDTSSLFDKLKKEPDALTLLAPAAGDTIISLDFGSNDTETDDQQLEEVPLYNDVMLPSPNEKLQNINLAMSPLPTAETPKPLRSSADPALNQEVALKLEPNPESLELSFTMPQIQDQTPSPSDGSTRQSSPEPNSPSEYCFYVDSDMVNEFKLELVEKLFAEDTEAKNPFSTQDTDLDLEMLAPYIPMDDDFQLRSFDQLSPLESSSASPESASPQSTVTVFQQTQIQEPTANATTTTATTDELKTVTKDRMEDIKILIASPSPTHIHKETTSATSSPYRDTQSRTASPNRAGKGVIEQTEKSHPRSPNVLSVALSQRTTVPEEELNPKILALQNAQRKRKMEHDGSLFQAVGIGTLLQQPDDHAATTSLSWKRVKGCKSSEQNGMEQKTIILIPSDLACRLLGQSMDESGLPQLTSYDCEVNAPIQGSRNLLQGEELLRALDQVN
UniProt Q13838: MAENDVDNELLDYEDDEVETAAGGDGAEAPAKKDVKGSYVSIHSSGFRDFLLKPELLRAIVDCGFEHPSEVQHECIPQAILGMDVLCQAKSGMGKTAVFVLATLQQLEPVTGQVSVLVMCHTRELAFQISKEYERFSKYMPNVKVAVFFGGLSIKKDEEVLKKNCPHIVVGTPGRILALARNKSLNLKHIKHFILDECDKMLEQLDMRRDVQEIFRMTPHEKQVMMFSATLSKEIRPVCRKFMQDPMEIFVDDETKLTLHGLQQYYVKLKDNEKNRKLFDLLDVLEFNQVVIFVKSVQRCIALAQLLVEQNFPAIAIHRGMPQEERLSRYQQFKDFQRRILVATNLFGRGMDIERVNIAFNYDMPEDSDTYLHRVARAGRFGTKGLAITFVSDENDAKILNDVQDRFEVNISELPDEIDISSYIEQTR
UniProt Q05639: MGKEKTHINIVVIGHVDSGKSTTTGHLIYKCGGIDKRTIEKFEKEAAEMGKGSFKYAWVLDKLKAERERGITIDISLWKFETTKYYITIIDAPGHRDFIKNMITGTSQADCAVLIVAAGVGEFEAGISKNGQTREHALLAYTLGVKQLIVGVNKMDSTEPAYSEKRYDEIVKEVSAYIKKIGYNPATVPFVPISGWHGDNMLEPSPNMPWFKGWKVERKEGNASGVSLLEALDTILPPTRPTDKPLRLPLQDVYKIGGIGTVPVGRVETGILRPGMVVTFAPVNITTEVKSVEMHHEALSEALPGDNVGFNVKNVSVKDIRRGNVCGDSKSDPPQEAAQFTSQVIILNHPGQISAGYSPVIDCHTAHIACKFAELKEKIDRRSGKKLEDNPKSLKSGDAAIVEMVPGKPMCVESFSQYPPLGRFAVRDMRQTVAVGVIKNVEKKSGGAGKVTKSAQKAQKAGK
UniProt P52948, residues 1-880: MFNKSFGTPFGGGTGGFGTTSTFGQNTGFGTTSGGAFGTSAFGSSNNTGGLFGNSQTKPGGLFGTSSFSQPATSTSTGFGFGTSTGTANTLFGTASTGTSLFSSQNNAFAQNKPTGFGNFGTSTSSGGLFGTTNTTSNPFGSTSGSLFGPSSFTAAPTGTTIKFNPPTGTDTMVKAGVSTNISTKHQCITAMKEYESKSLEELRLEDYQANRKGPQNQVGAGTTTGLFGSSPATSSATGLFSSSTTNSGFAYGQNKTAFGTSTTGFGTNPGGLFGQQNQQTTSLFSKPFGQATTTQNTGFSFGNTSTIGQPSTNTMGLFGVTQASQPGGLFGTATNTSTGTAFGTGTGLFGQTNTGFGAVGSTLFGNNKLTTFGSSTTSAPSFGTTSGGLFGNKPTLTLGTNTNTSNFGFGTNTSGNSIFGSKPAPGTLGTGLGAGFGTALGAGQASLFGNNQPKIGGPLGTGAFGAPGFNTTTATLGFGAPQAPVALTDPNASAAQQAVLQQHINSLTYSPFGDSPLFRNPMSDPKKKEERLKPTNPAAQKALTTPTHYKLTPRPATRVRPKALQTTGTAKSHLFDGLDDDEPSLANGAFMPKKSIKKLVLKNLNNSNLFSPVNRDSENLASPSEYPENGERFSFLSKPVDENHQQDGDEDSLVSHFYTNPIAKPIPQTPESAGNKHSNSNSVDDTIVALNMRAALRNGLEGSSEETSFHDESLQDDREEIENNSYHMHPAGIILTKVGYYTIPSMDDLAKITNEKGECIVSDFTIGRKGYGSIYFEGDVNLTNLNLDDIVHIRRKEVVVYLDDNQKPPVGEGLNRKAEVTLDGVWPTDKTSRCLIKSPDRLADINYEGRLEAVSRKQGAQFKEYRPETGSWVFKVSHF
UniProt P49790: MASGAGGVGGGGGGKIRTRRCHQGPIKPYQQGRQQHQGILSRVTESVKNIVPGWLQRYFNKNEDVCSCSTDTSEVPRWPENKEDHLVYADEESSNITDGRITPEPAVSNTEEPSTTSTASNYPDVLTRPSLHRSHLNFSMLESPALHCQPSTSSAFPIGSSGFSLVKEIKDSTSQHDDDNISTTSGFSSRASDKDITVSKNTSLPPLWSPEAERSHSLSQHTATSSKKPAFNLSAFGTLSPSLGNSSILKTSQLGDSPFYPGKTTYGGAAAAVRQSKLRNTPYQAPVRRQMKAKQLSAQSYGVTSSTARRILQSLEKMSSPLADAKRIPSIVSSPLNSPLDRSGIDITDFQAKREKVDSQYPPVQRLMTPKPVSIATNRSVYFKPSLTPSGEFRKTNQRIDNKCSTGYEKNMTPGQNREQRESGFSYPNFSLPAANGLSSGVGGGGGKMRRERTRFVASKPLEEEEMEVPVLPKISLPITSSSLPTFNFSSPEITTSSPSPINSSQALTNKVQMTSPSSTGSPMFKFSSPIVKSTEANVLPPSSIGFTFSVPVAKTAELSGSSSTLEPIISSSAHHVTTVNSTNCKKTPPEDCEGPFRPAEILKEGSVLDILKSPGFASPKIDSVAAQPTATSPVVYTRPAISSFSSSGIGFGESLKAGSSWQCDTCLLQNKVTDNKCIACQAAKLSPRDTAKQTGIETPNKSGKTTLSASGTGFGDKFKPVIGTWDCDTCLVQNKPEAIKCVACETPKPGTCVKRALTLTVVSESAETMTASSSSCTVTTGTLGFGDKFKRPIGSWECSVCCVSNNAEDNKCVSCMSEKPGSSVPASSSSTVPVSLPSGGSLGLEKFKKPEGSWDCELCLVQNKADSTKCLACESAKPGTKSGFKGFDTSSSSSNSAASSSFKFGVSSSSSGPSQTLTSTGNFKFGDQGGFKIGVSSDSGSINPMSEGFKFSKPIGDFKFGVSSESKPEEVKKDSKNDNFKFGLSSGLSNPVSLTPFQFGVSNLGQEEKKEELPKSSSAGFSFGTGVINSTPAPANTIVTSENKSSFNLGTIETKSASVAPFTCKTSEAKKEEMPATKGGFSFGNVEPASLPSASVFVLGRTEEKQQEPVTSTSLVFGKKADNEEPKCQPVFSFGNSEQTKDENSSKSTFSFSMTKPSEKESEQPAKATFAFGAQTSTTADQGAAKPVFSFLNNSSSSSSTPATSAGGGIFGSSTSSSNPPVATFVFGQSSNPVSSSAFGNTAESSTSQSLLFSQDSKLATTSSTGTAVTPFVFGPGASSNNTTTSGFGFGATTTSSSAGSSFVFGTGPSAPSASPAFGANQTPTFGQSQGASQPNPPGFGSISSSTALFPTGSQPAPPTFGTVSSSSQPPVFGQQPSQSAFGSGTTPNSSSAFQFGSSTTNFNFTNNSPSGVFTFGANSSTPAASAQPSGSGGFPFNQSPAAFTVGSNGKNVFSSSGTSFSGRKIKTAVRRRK
UniProt Q92973: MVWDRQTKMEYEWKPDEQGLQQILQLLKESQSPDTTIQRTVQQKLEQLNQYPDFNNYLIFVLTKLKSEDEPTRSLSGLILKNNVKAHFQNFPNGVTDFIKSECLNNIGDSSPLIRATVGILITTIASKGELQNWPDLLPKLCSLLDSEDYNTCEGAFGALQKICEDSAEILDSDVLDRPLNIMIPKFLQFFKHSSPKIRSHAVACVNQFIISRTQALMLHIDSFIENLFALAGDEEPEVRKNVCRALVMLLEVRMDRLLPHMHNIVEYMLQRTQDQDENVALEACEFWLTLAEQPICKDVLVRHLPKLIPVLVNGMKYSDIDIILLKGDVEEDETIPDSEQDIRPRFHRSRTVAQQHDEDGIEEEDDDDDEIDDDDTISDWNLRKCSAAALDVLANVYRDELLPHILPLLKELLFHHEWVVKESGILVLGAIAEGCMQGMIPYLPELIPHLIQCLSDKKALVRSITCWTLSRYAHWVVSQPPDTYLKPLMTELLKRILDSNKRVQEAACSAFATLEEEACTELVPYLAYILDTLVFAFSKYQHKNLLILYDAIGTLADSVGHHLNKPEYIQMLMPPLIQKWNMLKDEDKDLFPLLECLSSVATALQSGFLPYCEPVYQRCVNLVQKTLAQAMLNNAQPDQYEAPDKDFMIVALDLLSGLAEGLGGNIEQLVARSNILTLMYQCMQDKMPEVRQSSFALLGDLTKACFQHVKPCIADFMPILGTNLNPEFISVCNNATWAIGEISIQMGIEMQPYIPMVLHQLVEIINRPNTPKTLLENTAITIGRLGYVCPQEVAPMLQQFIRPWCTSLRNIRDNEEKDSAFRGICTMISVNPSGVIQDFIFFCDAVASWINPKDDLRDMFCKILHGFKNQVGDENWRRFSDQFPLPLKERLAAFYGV

B1: RAB15 (protein, UniProt P59190 1-212)
chain: MAKQYDVLFRLLLIGDSGVGKTCLLCRFTDNEFHSSHISTIGVDFKMKTIEVDGIKVRIQIWDTAGQERYQTITKQYYRRAQGIFLVYDISSERSYQHIMKWVSDVDEYAPEGVQKILIGNKADEEQKRQVGREQGQQLAKEYGMDFYETSACTNLNIKESFTRLTELVLQAHRKELEGLRMRASNELALAELEEEEGKPEGPANSSKTCWC
B2: VPS4A (protein, UniProt Q9UN37 1-437)
chain: MTTSTLQKAIDLVTKATEEDKAKNYEEALRLYQHAVEYFLHAIKYEAHSDKAKESIRAKCVQYLDRAEKLKDYLRSKEKHGKKPVKENQSEGKGSDSDSEGDNPEKKKLQEQLMGAVVMEKPNIRWNDVAGLEGAKEALKEAVILPIKFPHLFTGKRTPWRGILLFGPPGTGKSYLAKAVATEANNSTFFSVSSSDLMSKWLGESEKLVKNLFELARQHKPSIIFIDEVDSLCGSRNENESEAARRIKTEFLVQMQGVGNNNDGTLVLGATNIPWVLDSAIRRRFEKRIYIPLPEEAARAQMFRLHLGSTPHNLTDANIHELARKTEGYSGADISIIVRDSLMQPVRKVQSATHFKKVCGPSRTNPSMMIDDLLTPCSPGDPGAMEMTWMDVPGDKLLEPVVCMSDMLRSLATTRPTVNADDLLKVKKFSEDFGQES

The molecules below were run against GFP-HIF1α (wild type) (human (cDNA from SW480 cells)) (UniProt Q16665) (assay: affinity purification with mass spectrometry; GFP-HIF1α co-expressed with Flag-tagged WT TRIM1, ΔRING TRIM1 or pVec in SW480 cells for 18 h; IP with GFP-specific antibody, SDS-PAGE, in-gel trypsin digestion, LC-MS/MS; spectral counts compared between samples).

binding, binds:
DDX39B (from UniProt Q13838 1-428)
EEF1A2 (from UniProt Q05639 1-463)
NUP98 (from UniProt P52948 1-880)
NUP153 (from UniProt P49790 1-1475)
RANBP2 (from UniProt P49792 1-3224)
TNPO1 (from UniProt Q92973 1-898)

Biological target: GFP-HIF1α (wild type) (human (cDNA from SW480 cells)) (UniProt Q16665)
Assay: as above
Remark: another data set of the same source

binding, binds:
B1
B2
